Data published in patent US20150017120A1 (MIT, published 2015).
Where a chain is given by its changes, count along the chain named. Numbers in names are those of the source. These are yes or no findings as the source states them, for the method shown. Some binding calls cover weakened binding; strength is not graded here. One block for each binder: values may come before it.

Columns and labels:
soluble murine CD25 [1] = biological target: T1, soluble murine CD25 (murine, UniProt P01590 22-236, limits assumed); experiment: yeast surface display, labeling with 5 or 50 nM soluble CD25
T1 construct: also called soluble CD25; mouse CD25
T1 sequence (looked up): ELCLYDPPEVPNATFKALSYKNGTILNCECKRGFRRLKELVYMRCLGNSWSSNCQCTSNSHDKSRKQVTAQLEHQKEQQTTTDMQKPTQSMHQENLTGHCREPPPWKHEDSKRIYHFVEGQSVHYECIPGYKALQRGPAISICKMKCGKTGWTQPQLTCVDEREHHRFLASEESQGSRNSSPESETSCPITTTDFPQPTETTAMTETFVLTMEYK

soluble murine CD25 [2] = biological target: T1, soluble murine CD25; experiment: yeast surface display, labeling with soluble CD25, FACS

binding (soluble murine CD25 [1]): binds
B6: Q121R mouse IL-2 (ligand)
chain: APTSSSTSSSTAEAQQQQQQQQQQQQHLEQLLMDLQELLSRMENYRNLKLPRMLTFKFYLPKQATELKDLQCLEDELGPLRHVLDLTQSKSFQLEDAENFISNIRVTVVKLKGSDNTFECRFDDESATVVDFLRRWIAFCQSIISTSPQ

binding (soluble murine CD25 [2]): binds
B7: S126P IL-2 (ligand)
chain: B6 chain with R121Q, S126P

binding (soluble murine CD25 [1]): binds
B8: Q121S mouse IL-2 (ligand)
chain: B6 chain with R121S

binding (soluble murine CD25 [2]): binds
B10: S126T IL-2 (ligand)
chain: B6 chain with R121Q, S126T

The remaining lines, values behind:

B1: H82E mouse IL-2 (ligand)
chain: B6 chain with H82E, R121Q
binding (soluble murine CD25 [1]): binds

B2: H82A mouse IL-2 (ligand)
chain: B6 chain with H82A, R121Q
binding (soluble murine CD25 [1]): binds

B3: Q121A mouse IL-2 (ligand)
chain: B6 chain with R121A
binding (soluble murine CD25 [1]): binds

B4: H82S mouse IL-2 (ligand)
chain: B6 chain with H82S, R121Q
binding (soluble murine CD25 [1]): binds

B5: H82G mouse IL-2 (ligand)
chain: B6 chain with H82G, R121Q
binding (soluble murine CD25 [1]): binds

B9: Q121G mouse IL-2 (ligand)
chain: B6 chain with R121G
binding (soluble murine CD25 [1]): binds
